# Reference: the supplement of paper PMC8728848
# The other results are listed elsewhere or left out.
# B1: EULS2 M3 (Oryza sativa) (protein)
# chain: MVYCRANPNYAMTARNGAVVLAPANPKDEYQHWIKDMRWSTSIKDEEGYPAFALVNKATGQAIKHSLGQSHPVRLVPYNPEVMDESVLWTESRDVGNGFRCIRMVNNIYLNFDAFHGDKYHGGVRDGTDIVLWKLCEGDSLRWKIQPYYILEQKLISEEDLNSAVDHHHHHH
# Legend:
# Experiment in all cases: glycan array binding signal (z-score within array); higher = stronger binding
# Conditions in all cases: glycan notation: IUPAC condensed, linker removed
# [1] = target: Gal(b1-4)GlcNAc(b1-3)Gal(b1-4)GlcNAc(b1-3)Gal(b1-4)GlcNAc(b1-3)Gal(b1-4)GlcNAc(b1-2)Man(a1-3)[Gal(b1-4)GlcNAc(b1-3)Gal(b1-4)GlcNAc(b1-3)Gal(b1-4)GlcNAc(b1-3)Gal(b1-4)GlcNAc(b1-2)Man(a1-6)]Man(b1-4)GlcNAc(b1-4)[Fuc(a1-6)]GlcNAc
# In short: (§1)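 Columns mapping to the same glycan were averaged after glycan names were converted to IUPAC-condensed notation. The data come from 3228 arrays in the Consortium for Functional Glycomics database, limited to those with an available protein sequence. Binding is reported as a within-array Z-score averaged across arrays of one protein sequence and across linkers.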
# [2] = target: Gal(b1-4)GlcNAc(b1-3)Gal(b1-4)GlcNAc(b1-3)Gal(b1-4)GlcNAc(b1-3)Gal(b1-4)GlcNAc(b1-2)[Gal(b1-4)GlcNAc(b1-3)Gal(b1-4)GlcNAc(b1-3)Gal(b1-4)GlcNAc(b1-3)Gal(b1-4)GlcNAc(b1-6)]Man(a1-6)[Gal(b1-4)GlcNAc(b1-3)Gal(b1-4)GlcNAc(b1-3)Gal(b1-4)GlcNAc(b1-3)Gal(b1-4)GlcNAc(b1-2)Man(a1-3)]Man(b1-4)GlcNAc(b1-4)[Fuc(a1-6)]GlcNAc
# In short: as §1
# [3] = target: Gal(b1-4)GlcNAc(b1-3)Gal(b1-4)GlcNAc(b1-3)Gal(b1-4)GlcNAc(b1-3)Gal(b1-4)GlcNAc(b1-3)Gal(b1-4)GlcNAc(b1-2)Man(a1-3)[Gal(b1-4)GlcNAc(b1-3)Gal(b1-4)GlcNAc(b1-3)Gal(b1-4)GlcNAc(b1-3)Gal(b1-4)GlcNAc(b1-3)Gal(b1-4)GlcNAc(b1-2)Man(a1-6)]Man(b1-4)GlcNAc(b1-4)GlcNAc
# In short: as §1
# [4] = target: Gal(b1-4)GlcNAc(b1-3)Gal(b1-4)GlcNAc(b1-3)Gal(b1-4)GlcNAc(b1-3)Gal(b1-4)GlcNAc(b1-3)Gal(b1-4)GlcNAc(b1-2)Man(a1-3)[Gal(b1-4)GlcNAc(b1-3)Gal(b1-4)GlcNAc(b1-3)Gal(b1-4)GlcNAc(b1-3)Gal(b1-4)GlcNAc(b1-3)Gal(b1-4)GlcNAc(b1-2)Man(a1-6)]Man(b1-4)GlcNAc(b1-4)[Fuc(a1-6)]GlcNAc
# In short: as §1
# [5] = target: Gal(b1-4)GlcNAc(b1-3)Gal(b1-4)GlcNAc(b1-3)Gal(b1-4)GlcNAc(b1-3)Gal(b1-4)GlcNAc(b1-3)Gal(b1-4)GlcNAc(b1-2)[Gal(b1-4)GlcNAc(b1-3)Gal(b1-4)GlcNAc(b1-3)Gal(b1-4)GlcNAc(b1-3)Gal(b1-4)GlcNAc(b1-3)Gal(b1-4)GlcNAc(b1-6)]Man(a1-6)[Gal(b1-4)GlcNAc(b1-3)Gal(b1-4)GlcNAc(b1-3)Gal(b1-4)GlcNAc(b1-3)Gal(b1-4)GlcNAc(b1-3)Gal(b1-4)GlcNAc(b1-2)Man(a1-3)]Man(b1-4)GlcNAc(b1-4)[Fuc(a1-6)]GlcNAc
# In short: as §1
# [6] = target: Gal(b1-4)GlcNAc(b1-3)Gal(b1-4)GlcNAc(b1-3)Gal(b1-4)GlcNAc(b1-3)Gal(b1-4)GlcNAc(b1-3)Gal(b1-4)GlcNAc(b1-3)Gal(b1-4)GlcNAc(b1-2)Man(a1-3)[Gal(b1-4)GlcNAc(b1-3)Gal(b1-4)GlcNAc(b1-3)Gal(b1-4)GlcNAc(b1-3)Gal(b1-4)GlcNAc(b1-3)Gal(b1-4)GlcNAc(b1-3)Gal(b1-4)GlcNAc(b1-2)Man(a1-6)]Man(b1-4)GlcNAc(b1-4)GlcNAc
# In short: as §1
# [7] = target: Gal(b1-4)GlcNAc(b1-3)Gal(b1-4)GlcNAc(b1-3)GalNAc
# In short: as §1
# [8] = target: Gal(b1-4)GlcNAc(b1-3)Gal(b1-4)GlcNAc(b1-3)[Gal(b1-4)GlcNAc(b1-3)Gal(b1-4)GlcNAc(b1-6)]GalNAc
# In short: as §1
# [9] = target: Gal(b1-4)GlcNAc(b1-3)Gal(b1-4)GlcNAc(b1-6)[Gal(b1-3)]GalNAc
# In short: as §1
# [10] = target: Gal(b1-4)GlcNAc(b1-3)Gal(b1-4)[Fuc(a1-3)]GlcNAc(b1-3)Gal(b1-4)[Fuc(a1-3)]GlcNAc
# In short: as §1
# [11] = target: Gal(b1-4)GlcNAc(b1-3)GalNAc
# In short: as §1
# [12] = target: Gal(b1-4)GlcNAc(b1-3)[Fuc(a1-3)GlcNAc(b1-6)]Gal(b1-4)Glc
# In short: as §1
# [13] = target: Gal(b1-4)GlcNAc(b1-3)[Gal(b1-4)GlcNAc(b1-6)]Gal(b1-4)GlcNAc
# In short: as §1
# [14] = target: Gal(b1-4)GlcNAc(b1-3)[GlcNAc(b1-6)]Gal(b1-4)GlcNAc
# In short: as §1
# [15] = target: Gal(b1-4)GlcNAc(b1-6)Gal(b1-4)GlcNAc
# In short: as §1
# [16] = target: Gal(b1-4)GlcNAc(b1-6)GalNAc
# In short: as §1
# [17] = target: Gal(b1-4)GlcNAc(b1-6)[Gal(b1-3)]GalNAc
# In short: as §1
# [18] = target: Gal(b1-4)GlcNAc(b1-6)[Gal(b1-4)GlcNAc(b1-3)]GalNAc
# In short: as §1
# Gal(b1-4)GlcNAc6P = target: Gal(b1-4)GlcNAc6P
# In short: as §1
# Gal(b1-6)Gal = target: Gal(b1-6)Gal
# In short: as §1
# Gal3S(b1-3)GalNAc = target: Gal3S(b1-3)GalNAc
# In short: as §1
# Gal3S(b1-3)GlcNAc = target: Gal3S(b1-3)GlcNAc
# In short: as §1
# [19] = target: Gal3S(b1-3)[Fuc(a1-4)]GlcNAc
# In short: as §1
binder,measurement,setting,value
B1,glycan array binding signal (z-score),[1],1.18
same,glycan array binding signal (z-score),[2],0.461
same,glycan array binding signal (z-score),[3],0.203
same,glycan array binding signal (z-score),[4],0.081
same,glycan array binding signal (z-score),[5],0.063
same,glycan array binding signal (z-score),[6],1.05
same,glycan array binding signal (z-score),[7],-0.117
same,glycan array binding signal (z-score),[8],0.234
same,glycan array binding signal (z-score),[9],-0.879
same,glycan array binding signal (z-score),[10],-0.108
same,glycan array binding signal (z-score),[11],-0.373
same,glycan array binding signal (z-score),[12],-0.301
same,glycan array binding signal (z-score),[13],-0.214
same,glycan array binding signal (z-score),[14],-0.582
same,glycan array binding signal (z-score),[15],0.139
same,glycan array binding signal (z-score),[16],-0.559
same,glycan array binding signal (z-score),[17],-0.033
same,glycan array binding signal (z-score),[18],-0.34
same,glycan array binding signal (z-score),Gal(b1-4)GlcNAc6P,-0.655
same,glycan array binding signal (z-score),Gal(b1-6)Gal,-0.323
same,glycan array binding signal (z-score),Gal3S(b1-3)GalNAc,-0.664
same,glycan array binding signal (z-score),Gal3S(b1-3)GlcNAc,-0.178
same,glycan array binding signal (z-score),[19],-0.125

# For reference, part of the list above:
binder,measurement,setting,value
B1,glycan array binding signal (z-score),Gal3S(b1-3)GlcNAc,-0.178
same,glycan array binding signal (z-score),[19],-0.125
